According to patent publication US20110280770A1, “Nanogenerator” (priority 2010, published 2011):
At least one compound was matched to its structure with a doubt left. Non-standard residues stand in square brackets, D forms with d. Residues, ends and D or L forms follow the SMILES beside them. *: point of attachment. NOTA = O=C(O)CN1CCN(CC(=O)O)CCN(CC(=O)*)CC1

Chains of the proteins cited; added tags and fusions are not shown. Lines headed by an entry give the natural chain unless they say otherwise; changes in a name come on top.
UniProt Q01727: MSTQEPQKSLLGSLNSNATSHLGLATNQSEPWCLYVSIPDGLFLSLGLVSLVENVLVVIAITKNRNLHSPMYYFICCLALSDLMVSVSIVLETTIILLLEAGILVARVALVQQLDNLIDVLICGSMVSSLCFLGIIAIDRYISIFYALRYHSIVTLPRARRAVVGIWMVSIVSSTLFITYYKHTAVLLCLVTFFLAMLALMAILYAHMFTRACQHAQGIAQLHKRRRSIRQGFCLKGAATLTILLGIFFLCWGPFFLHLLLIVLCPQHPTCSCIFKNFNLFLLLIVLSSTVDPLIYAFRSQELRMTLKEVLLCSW

These compounds were tested against T1, melanocortin-1 receptor (Mus musculus, UniProt Q01727) (assay: Competitive binding: displacement of ^125I-NDP from the melanocortin-1 receptor on cultured B16/F1 cells). Settings: peptide concentrations 10-13 to 10^-5 M.
T1 construct: endogenous in cells; host or cells: B16/F1 cells

Compound	IC50 [nM]
CC(C)[C@H](NC(=O)[C@@H]1CCCN1C(=O)[C@H](CCCNC(=N)N)NC(=O)[C@H](CS)NC(=O)[C@H](Cc1c[nH]c2ccccc12)NC(=O)[C@H](CCCNC(=N)N)NC(=O)[C@@H](Cc1ccccc1)NC(=O)[C@H](Cc1c[nH]cn1)NC(=O)[C@H](CCC(=O)O)NC(=O)[C@H](CS)NC(=O)[C@H](CS)NC(=O)CNC(=O)[C@H](CO)NC(=O)CNC(=O)CN1CCN(CC(=O)O)CCN(CC(=O)O)CC1)C(N)=O [NOTA-2-GSG-Arg11] ({NOTA}-GSGCCEH[dF]RWCRPV-NH2)	5.99
CC(C)[C@H](NC(=O)[C@@H]1CCCN1C(=O)[C@H](CCCNC(=N)N)NC(=O)[C@H](CS)NC(=O)[C@H](Cc1c[nH]c2ccccc12)NC(=O)[C@H](CCCNC(=N)N)NC(=O)[C@@H](Cc1ccccc1)NC(=O)[C@H](Cc1c[nH]cn1)NC(=O)[C@H](CCC(=O)O)NC(=O)[C@H](CS)NC(=O)[C@H](CS)NC(=O)CNC(=O)CNC(=O)CNC(=O)CN1CCN(CC(=O)O)CCN(CC(=O)O)CC1)C(N)=O [NOTA-2-GGG-Arg11] ({NOTA}-GGGCCEH[dF]RWCRPV-NH2)	1.97
CC(C)[C@H](NC(=O)[C@@H]1CCCN1C(=O)[C@H](CCCNC(=N)N)NC(=O)[C@H](CS)NC(=O)[C@H](Cc1c[nH]c2ccccc12)NC(=O)[C@H](CCCNC(=N)N)NC(=O)[C@@H](Cc1ccccc1)NC(=O)[C@H](Cc1c[nH]cn1)NC(=O)[C@H](CCC(=O)O)NC(=O)[C@H](CS)NC(=O)[C@H](CS)NC(=O)CN1CCN(CC(=O)O)CCN(CC(=O)O)CC1)C(N)=O [NOTA-2-Arg11] ({NOTA}-CCEH[dF]RWCRPV-NH2)	1.25
